65 molecules from PubChem BioAssay AID493014 (National Center for Advancing Translational Sciences (NCATS), 2011) can be followed below.

The other results are listed elsewhere or left out. These are further read-outs of the screen, such as a control signal, another cell line or another target. No call is given for them. The list favours compounds with an active or inconclusive main result. Words in brackets tell the shape of the fitted curve; partial curves, single points and poor fits give uncertain potencies.

A short description of the test: qHTS Assay to Find Inhibitors of Chronic Active B-Cell Receptor Signaling. Particulars: ABC-DLBCL IkBa-CBG/CBR reporter, luminescence ratio (green luciferase fused to IkBa over red control in TMD8 lymphoma cells), 4 h. The method in brief: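 TMD8 ABC-DLBCL cells carrying doxycycline-inducible green luciferase fused to IkappaBalpha plus unfused red luciferase were exposed to compounds (up to 46 uM) for 4 hrs at 37C. Activity came from the overlap-corrected green/red luminescence ratio.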
In general terms: Quantitative high-throughput screening tests each substance at several concentrations.

[1] abbreviates: measured here: CBR red luminescence, cell number.

As usually defined, the AC50 is the midpoint of the concentration-response curve, whichever way the signal moves. In the case of `CC1CCN(Cc2nc(-c3ccc(Cl)cc3)no2)CC1`, the concentration at half-maximal activity (AC50) under setting [1] was 0.112 µM [rising, full curve, poor fit].
Consider `O=c1[nH]n(-c2ccc([N+](=O)[O-])cc2)c(=O)c2ccccc12`, for which the AC50 under setting [1] was 35.5 µM [falling, single point].
On the same count and under the same terms, the figure for `CC1CCC2(CC1)NC(=O)N(CC(=O)Nc1ccc(F)cc1)C2=O` (stereo not given) is 14.6 µM [falling, partial curve]; for `c1ccc(Nc2ccccn2)nc1` it is 1 µM [falling, full curve]; for `Cc1ccc(/C=C2\Oc3cc(OCC(=O)NN)ccc3C2=O)o1` it is 0.398 µM [rising, full curve, poor fit].
On to `CCOC(=O)c1ccc(Nc2ncnc3c2cnn3C)cc1`, for which the AC50 under setting [1] was 2 µM [rising, partial curve].
On to `COC(=O)Cc1[nH]nc2c1C(C1C=CCCC1)C(C#N)=C(N)O2` (stereo not given), for which, under setting [1], the half-maximal activity concentration (AC50) is 14.6 µM [falling, partial curve].
Still for that read-out and setting: the figure for `COc1cccc(-c2cc(C(=O)Nc3ccccc3SC)no2)c1` is 0.1 µM [falling, full curve, poor fit]; for `COc1ccc(C)c2sc(=NC(=O)c3ccc(C(C)=O)cc3)n(C)c12` it is 2.24 µM [falling, full curve]; for `Clc1nnc(N/N=C/c2ccccc2)c2ccccc12` it is 13 µM [falling, partial curve].
In the case of `O=S(=O)(c1ccccc1)N1CCC(Oc2ccc(-n3cnnn3)cc2)CC1`, under setting [1], the half-maximal activity concentration (AC50) is 0.1 µM [falling, full curve, poor fit].
For the molecule `Cn1cc(CNC(=O)COc2ccc(Cl)cc2Cl)cn1`, the AC50 under setting [1] was 16.4 µM [rising, single point].
As for `COc1ccccc1C(=O)Nc1ccccc1C(=O)N1CCCC1`, under setting [1], the AC50 is 4.11 µM [rising, partial curve, poor fit].
For `O=C1c2ccccc2C(=O)N1CCCP(=O)(O)CCc1ccccc1`, under setting [1], the half-maximal activity concentration (AC50) is 29.1 µM [falling, single point].
As for `O=C(NCC1CCCO1)c1ccc(S(=O)(=O)Nc2ccc(F)cc2)cc1` (stereo not given), under setting [1], the concentration at half-maximal activity (AC50) is 29.1 µM [rising, single point].
Take `CCn1c(SCc2ccc(OC)c(F)c2)nc2ccccc2c1=O`: the half-maximal activity concentration (AC50) under setting [1] is 14.1 µM [rising, single point].
Still for that read-out and setting: the figure for `Cn1cc(Cl)c(C(=O)Nc2nc3ccc([N+](=O)[O-])cc3s2)n1` is 3.98 µM [falling, partial curve]; for `Cc1ccnc(NC(=O)CCC(=O)N(CC(=O)NCc2ccccc2)Cc2ccco2)c1` it is 2 µM [falling, full curve, poor fit]; for `Cc1ccc(/C=C2\SC(=S)N(CCCC(=O)Nc3ccccc3C(=O)O)C2=O)cc1` it is 0.794 µM [rising, partial curve, poor fit].
For `CCCCCCCN1C(Nc2ccccc2)=NC[C@@H]1Cc1ccccc1`, the AC50 under setting [1] was 17.8 µM [falling, partial curve].
Regarding `CCCc1ccc(-c2ccc(C(=O)O)cc2)nc1`, under setting [1], the half-maximal activity concentration (AC50) was 2.59 µM [falling, partial curve].
On the same count and under the same terms, for `COc1ccc(C)c2sc(N(CCN(C)C)C(=O)/C=C/c3cccs3)nc12` the value was 14.1 µM [falling, partial curve]; for `O=C(/C=C/c1cccc([N+](=O)[O-])c1)Nn1c(-c2ccccc2F)nc2ccccc2c1=O`, 13 µM [rising, partial curve]; for `Oc1ccc(/C=N/n2c(-c3ccccc3)n[nH]c2=S)cc1Br`, 11.2 µM [falling, partial curve, poor fit].
Regarding `O=C(Nc1ccc(Oc2ccccc2)cc1)c1cnc2n(c1=O)CCS2`, the AC50 under setting [1] was 0.461 µM [rising, full curve, poor fit].
On the same count and under the same terms, for `COC(=O)C1=C(C)N(CC2CC2)C(=NCc2cccc(Cl)c2)N[C@H]1c1ccccc1` the value was 35.5 µM [falling, single point]; for `O=C(O)c1cccc(Nc2ncnc3ccccc23)c1`, 1.64 µM [falling, full curve, poor fit].
With `CC1(C)S/C(=N/N=C/c2ccco2)NC1=O`, the concentration at half-maximal activity (AC50) under setting [1] was 25.9 µM [rising, single point].
Still for that read-out and setting: the figure for `Cc1ccc(S(=O)(=O)Nc2nccs2)cc1[N+](=O)[O-]` is 1.12 µM [falling, partial curve, poor fit]; for `CCC(=O)Nc1ccc(NC(=O)c2c(C)nc3ccccn23)cc1` it is 31.6 µM [rising, partial curve, poor fit].
Regarding `CCS(=O)(=O)c1ccc2oc(Nc3ccc(OC)c(OC)c3)nc2c1`, the AC50 under setting [1] was 7.08 µM [rising, partial curve].
Regarding `FC(F)(F)c1ccccc1NC(=S)N1CCN(Cc2ccc3c(c2)OCO3)CC1`, the concentration at half-maximal activity (AC50) under setting [1] was 35.5 µM [falling, single point].
In the case of `O=C(/C=C/c1ccc([N+](=O)[O-])cc1)Nc1cccc(C(=O)Nc2ccccc2C(=O)O)c1`, the AC50 under setting [1] is 14.1 µM [falling, partial curve].
The same measure, in the same setting: for `Cc1cccc(NC(=O)c2nc[nH]c2C(=O)NC2CCN(C(=O)OC(C)(C)C)CC2)c1` the value was 25.9 µM [rising, partial curve, poor fit].
Same read-out and setting: the figure for `O=C(NC1CCCCC1)NC12CC3CC(CC(C3)C1)C2` is 20 µM [rising, single point]; for `COc1ccc(C2C(=O)N(C3CCCCCC3)CC(=O)N2CCc2ccccc2)cc1` (stereo not given) it is 7.08 µM [falling, full curve, poor fit].
Take `COc1cccc(NC(=O)CCSc2ccc(C)cc2)c1`: the AC50 under setting [1] is 5.17 µM [falling, partial curve, poor fit].
Take `CCN(C(=O)CSc1nnc(-c2ccccc2C)n1C)c1c(N)n(Cc2ccccc2)c(=O)[nH]c1=O`: the AC50 under setting [1] was 20.6 µM [rising, single point].
Regarding `COc1ccc(OC)c(NCc2cccn2-c2nnc(N3CCC(C)CC3)s2)c1`, the AC50 under setting [1] was 7.08 µM [rising, full curve, poor fit].
Turning to `O=C(N/N=C/c1cccc(O)c1)c1cc2c(ccc3ccccc32)o1`, under setting [1], the AC50 is 5.01 µM [falling, full curve].
Turning to `COc1ccc(CNCC(O)(c2ccc(Cl)cc2)c2ccc(Cl)cc2)cc1OC`, the AC50 under setting [1] was 12.6 µM [falling, partial curve].
On to `COc1ccccc1N1C(=O)CC(Sc2ccccc2N)C1=O` (stereo not given), for which the AC50 under setting [1] was 3.16 µM [falling, single point].
Consider `O=C(NNc1nc(-c2ccccc2)cs1)c1ccco1`, for which, under setting [1], the AC50 is 6.51 µM [rising, single point].
In the case of `Cn1nc(C(F)(F)F)c(C(=O)Nc2ccc(F)cc2F)c1Sc1cccc(Cl)c1`, the AC50 (measured here: IkBa-CBG green luminescence) is 35.5 µM [rising, partial curve, poor fit].
Regarding `O=c1oc(/C=C/c2ccc([N+](=O)[O-])s2)nc2ccccc12`, the concentration at half-maximal activity (AC50) under setting [1] is 35.5 µM [falling, single point].
Regarding `c1csc(-c2nnc(N3CCCCCC3)c3ccccc23)c1`, under setting [1], the concentration at half-maximal activity (AC50) is 4.11 µM [rising, full curve].
For the molecule `COc1ccc(OC)c(/C=C2\SC(=S)N(C(C(=O)O)c3ccccc3)C2=O)c1` (stereo not given), under setting [1], the concentration at half-maximal activity (AC50) is 35.5 µM [falling, single point].
As for `Cc1cc(NC(=O)CSc2nnc(Nc3ccccc3C)s2)no1`, the half-maximal activity concentration (AC50) under setting [1] is 6.31 µM [falling, single point].
Still for that read-out and setting: the figure for `COc1ccc(CN(Cc2ccc(C(=O)O)cc2)C(=S)Nc2ccccc2Cl)cc1OC` is 2 µM [falling, partial curve, poor fit]; for `CN1C(=O)CSc2ccc(NC(=O)N3CCc4ccccc43)cc21` it is 6.31 µM [rising, single point]; for `O=c1c(-c2ccc3c(c2)OCCO3)coc2cc(O)cc(O)c12` it is 16.4 µM [falling, partial curve].
On to `CC(C)COC(=O)c1cc(=O)[nH]c2ccccc12`, for which, under setting [1], the half-maximal activity concentration (AC50) is 0.501 µM [rising, full curve, poor fit].
With `COC(=O)CC1Oc2ccccc2N(Cc2ccc(C)cc2)C1=O` (stereo not given), the AC50 under setting [1] is 13 µM [rising, partial curve, poor fit].
Turning to `N#Cc1ccc(C(=O)CSc2n[nH]c(=O)n2-c2cccnc2)cc1`, the AC50 under setting [1] is 0.112 µM [rising, full curve, poor fit].
Turning to `CC(=O)N/N=C/c1cc([N+](=O)[O-])ccc1OCCOc1ccccc1`, the AC50 under setting [1] is 6.31 µM [rising, partial curve, poor fit].
On to `COc1cc2nc(NC(=O)c3ccccc3)sc(=O)c2cc1OC`, for which the AC50 under setting [1] is 31.6 µM [rising, single point].
For the molecule `CCOC(=O)c1ccc(N2C(=O)CC(N(C)CCc3ccc(OC)c(OC)c3)C2=O)cc1` (stereo not given), the concentration at half-maximal activity (AC50) under setting [1] is 0.58 µM [rising, partial curve, poor fit].
Regarding `CO/N=C(\Cn1ncc(N2CCCC2)c(Br)c1=O)c1ccc(Cl)cc1`, the concentration at half-maximal activity (AC50) under setting [1] was 29.1 µM [falling, single point].
In the case of `Cc1oc(-c2ccc(Cl)cc2)nc1CS(=O)CC(=O)NCCCN1CCN(Cc2ccccc2)CC1` (stereo not given), under setting [1], the concentration at half-maximal activity (AC50) is 7.08 µM [falling, partial curve].
Take `CC1(C(=O)NNC(=S)NCc2ccco2)CC1(Cl)Cl` (stereo not given): the AC50 under setting [1] was 35.5 µM [rising, single point].
Take `CCN1CCN(C(c2cccs2)C(C)NC(=S)NC2CCCCC2)CC1` (stereo not given): the AC50 under setting [1] was 1.58 µM [rising, partial curve, poor fit].
Same read-out and setting: for `O=C1NCCN(Cc2ccc(-c3ccccc3)cc2)C1CC(=O)N1CCN(CCO)CC1` (stereo not given) the value was 4.47 µM [rising, full curve, poor fit].
Consider `Cc1ccc(S(=O)(=O)N2CCN(c3ccc([N+](=O)[O-])c4cccnc34)CC2)cc1`, for which the AC50 under setting [1] is 0.259 µM [rising, full curve, poor fit].
In the case of `CC1(C)CC(=O)C(C=Nc2cccnc2)=C(O)C1`, the half-maximal activity concentration (AC50) under setting [1] is 12.6 µM [rising, partial curve, poor fit].
Turning to `COc1cc(C(Nc2ccc3c(c2)OCO3)C(=O)NC2CCCCC2)cc(OC)c1OC` (stereo not given), the AC50 under setting [1] was 1.46 µM [rising, partial curve, poor fit].
